Experimental data from the supplement of paper PMC5949888.
Most values lie at the floor of the assay. Slopes are relative: functional sequences can read slightly below zero.

System: Saccharomyces cerevisiae PS128 hsf1 delta, HSF1(1-493) fusion
Assay: growth estimate (transactivation domain function in HSF1 fusion, heat-shock survival) (a.u. (slope of normalised read count over time)); higher = stronger growth at 37°C, i.e. more transactivation activity
Details: library: random library
Protocol: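 Random 60-nt DNA library encoding peptides of up to 20 aa, fused to the C-terminus of yeast HSF1 residues 1-493 (C-terminal TAD deleted) and expressed from the native HSF1 promoter on a CEN plasmid in hsf1-deleted S. cerevisiae PS128. Cells were selected at 37°C on -trp 5-FOA plates for 0, 2, 4, 6 and 8 days and amplicons were sequenced. Growth estimate is the slope of a robust linear fit of total-sum-normalised read counts (normalised to the first time point) over time, using at least 2 replicates. Sequences are classed functional (TAD activity) above a threshold of -0.13, set from stop-codon control sequences.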

Row | Substance | growth estimate
1 | ALVTRASLGQRPNSFSAYAT | < -0.25
2 | MLRDLFGMNAGSVWDRLQMA | 0.394
3 | GILYKIVSGGSGSY | < -0.25
4 | PVIS | < -0.25
5 | YHRSVLC | -0.246
6 | CSAS | < -0.25
7 | KVYAGCKGKPGCIDIKIYNL | < -0.25
8 | PDANLAFG | < -0.25
9 | NGKRVREGITVIVRTLVHPA | < -0.25
10 | ENPTPSGAHVLSGSFVLRFR | < -0.25
11 | HTENAQHRTSHRHSVERENA | < -0.25
12 | TVSNFVFVIL | < -0.25
13 | AHQPKQVEGKKADLG | < -0.25
14 | LNI | < -0.25
15 | PRIGSTSIVRRVCAMITGSA | < -0.25
16 | SCRAADRDPKCPATMSGFSA | < -0.25
17 | YRESGGDSMNKAPAWSSLGS | < -0.25
18 | NTSRALTYRSSPN | < -0.25
19 | ASTDWGEPLLGKKLVSARTR | -0.246
20 | VLKA | -0.176
21 | QVTTCTQAYRRC | < -0.25
22 | IRGINVPALD | < -0.25
23 | TRAWRSVWAFNINKSRSVPC | < -0.25
24 | AGSVSPHSPTDARINAVLWT | < -0.25

Part of the list above, field by field:
TVSNFVFVIL
  growth estimate: < -0.25
AHQPKQVEGKKADLG
  growth estimate: < -0.25
LNI
  growth estimate: < -0.25
PRIGSTSIVRRVCAMITGSA
  growth estimate: < -0.25

Random excerpt: five entries already listed.
Row | Substance | growth estimate
8 | PDANLAFG | < -0.25
23 | TRAWRSVWAFNINKSRSVPC | < -0.25
12 | TVSNFVFVIL | < -0.25
15 | PRIGSTSIVRRVCAMITGSA | < -0.25
1 | ALVTRASLGQRPNSFSAYAT | < -0.25

Remaining list, next part.

Row | Substance | growth estimate
25 | AGIWYVEPTAAQGCGD | < -0.25
26 | RRSCIMRSISLWESSFRNWR | < -0.25
27 | FTGPNGKITTRRLVLSNGWI | < -0.25
28 | PVVPKLRLRDQYEAFRSVCI | < -0.25
29 | HFAQALRVLWPGQIMGSRFW | < -0.25
30 | EYTIAT | < -0.25
31 | ELS | < -0.25
32 | QPRGLCCGVNFLRFLA | < -0.25
33 | AVVDAAHMDAWQIRERAGRK | < -0.25
34 | KSYLSNERPYG | < -0.25
35 | LGSCSNSAP | < -0.25
36 | ITLGSPVIFDAGYCCPDSTC | < -0.25
37 | TQPIP | < -0.25
38 | GSSMSP | < -0.25
39 | GISRPRGRR | < -0.25
40 | GLQSL | < -0.25
41 | AHTHRSLLKGIAQRESAMTP | < -0.25
42 | FRNSKRRHRLIWRQRKNWAK | < -0.25
43 | ALDTSDRFGRKESGLRKRAN | < -0.25
44 | PNP | < -0.25
45 | FNCKLESGQYSVSGTWYAVS | < -0.25
46 | GGYPGDDPKRPKGSTAPLK | < -0.25
47 | FGTDSAVGVSSCAAVLDQAI | < -0.25
48 | DSVRYPPDSQQPS | < -0.25

Row | Substance | growth estimate
49 | GLVGVN | < -0.25
50 | RLAVWVYLGTILCLCGESTR | < -0.25
51 | SIRVVISWSPVRCLGVRDLT | < -0.25
52 | DSHYCARSSESCESRRRRQL | < -0.25
53 | GVDPGYDCKGIRSDPRRATH | < -0.25
54 | VLKIIDEITVRGDWCVVQGS | < -0.25
55 | GGRAYLTP | < -0.25
56 | DLVARHAMSLFAESLRRPTT | < -0.25
57 | FWGLI | < -0.25
58 | LGTRTILKVSDRAGT | < -0.25
59 | EVQCGIRYRDLVAHSIGCWL | < -0.25
60 | DNLRSQRG | < -0.25
61 | AWGYTKKGQGINQKRHLQRP | < -0.25
62 | PHVLSPGFGDRYRSLSPFKF | < -0.25
63 | TNTLTA | -0.246
64 | PRTLLKTTCSDAIASRVRPG | < -0.25
65 | WYF | < -0.25
66 | RCLLAIEWFSVRERINPAVW | < -0.25
67 | ASLRTRGVGMEMVTITFVPL | < -0.25
68 | LRSVGCRVVYAS | < -0.25
69 | QEWSNSRHCPDWNTPVDKRP | < -0.25
70 | SRAISRTTLGL | < -0.25
71 | VGRKFVETVGVSPLPVYGRP | < -0.25
72 | GSACGFLCVFDPFSA | < -0.253

Row | Substance | growth estimate
73 | GKCLQFRVQVNCRGSPAGGN | < -0.25
74 | PPREVRACPM | < -0.25
75 | KNERR | < -0.25
76 | LPWAFVCSLSSTVSISTFVI | < -0.25
77 | MRGKSAPLAHVRNASLRGAV | < -0.25
78 | GQRRLLSGWRRDLPGPIKAV | < -0.25
79 | LRAERHCHDEVY | < -0.25
80 | SESVRASESRSSHTLYYQGY | < -0.25
81 | TRDLVTTGKSLFVGGSHARP | < -0.25
82 | AARGSNAMQYAKLLPEYCLC | < -0.25
83 | QRVTKMGSDDVYSHLVHNTF | -0.246
84 | LPLGQRAK | < -0.25
85 | SECAECPVNPDVSLLSRHQR | < -0.25
86 | RLHDGRGLAGNAKIQLQLGV | < -0.25
87 | IRYCRRVAYRKGLSLRRLTH | < -0.25
88 | GYGVPLALEGSHGDFWPQSG | < -0.25
89 | SCDLSELSLGHHVKRLTCWQ | < -0.25
90 | CPVCNPALRATRRI | < -0.25
91 | SVESSLSPRPVRGG | < -0.25
92 | CSPACLPGVVSSFSRDEPSA | < -0.25
93 | TQTPGAYS | < -0.25
94 | WGSTGHRSFREVENRNGITA | < -0.25
95 | HLLLRPLRQVVCSWVVVGVI | < -0.25
96 | AAIGTSRLEWCYVHPFQTLS | < -0.25

Row | Substance | growth estimate
97 | FYAGQGRRKCIHPGKIRFQL | < -0.25
98 | LLIATCKNFHGGPLHLTMGK | < -0.25
99 | RSCIFLRRFVTKI | < -0.25
100 | CLRFFC | < -0.25
101 | NVNGPKSTKIESGTTQTHKA | < -0.25
102 | YGRACYAGLRRERPT | < -0.25
103 | QLEGEGCGCLTAVMAWPQ | < -0.25
104 | PSREATESRFYPCLRYMFPS | < -0.25
105 | RGPTEP | < -0.25
106 | RDGRRSNW | < -0.25
107 | SVARIFSMI | < -0.25
108 | LEGPALDADTLHLEREVFRI | < -0.25
109 | KHMFCY | < -0.25
110 | ANRHISLSRSRYLPLRMKVV | < -0.25
111 | LEAVPL | < -0.25
112 | VKIQNAIQRSKHTLIRGCPG | < -0.25
113 | SSTCFCEVI | < -0.25
114 | CGLAS | < -0.25
115 | LGEARRT | < -0.25
116 | YYAASPAVLVVLHLIFRAHG | < -0.25
117 | RAADDESQTYSFMSAVCSGA | < -0.25
118 | VLINSRRSSVPNQDHARISR | < -0.25
119 | PISAG | < -0.25
120 | WGYRLCLRAYSGLSLSALFL | < -0.25

Row | Substance | growth estimate
121 | NGEVRPDLLPGNGASLSRGS | < -0.25
122 | GGKHSRLENVATGFRPIDPE | < -0.25
123 | PVTKLRPLWLVLSWMIPNFK | < -0.25
124 | NARLEGQCLK | < -0.25
125 | NSYVKVARLMCKYGDASGTQ | < -0.25
126 | WLRILTGRK | < -0.25
127 | CFLGRRPRHYVRRIASTSLN | < -0.25
128 | EGNGGLEIDWIA | < -0.25
129 | LFHENATRCRSCIVFVFTAS | < -0.25
130 | GHSYAHTGVEYTSLYRGLNR | -0.246
131 | ISAFPLPEECCVLTGSSHQD | < -0.25
132 | FFVRNQWTSDQRLYTVVYLA | < -0.25
133 | ELGAVKGPGGITLEERNVCL | < -0.25
134 | RSRQLLNTLAGLG | < -0.25
135 | YLGAQLLRV | < -0.25
136 | QNVWSRAREAGRRRPRRCAH | < -0.25
137 | LERWRVTVPTSPS | < -0.25
138 | EQRSPTRGIGIMINIAMEPL | < -0.25
139 | ELCGVC | < -0.25
140 | RYTRCLPYSVRGSAS | < -0.25
141 | WRSSS | < -0.25
142 | SCSATQAKNGQIMRVGVYGE | < -0.25
143 | CVKSTCLQVTPALVLRCLSR | < -0.25
144 | AATY | < -0.25

Row | Substance | growth estimate
145 | GVKT | < -0.25
146 | TAEPVFKQVRRRAHKVCTKP | < -0.25
147 | LIFATVQLRWGLTTSVSKVA | < -0.25
148 | IGLVEGGPPHCLLLSAVVES | < -0.25
149 | CISIAPRG | < -0.25
150 | WTQHGCEPGSYRNLRGVTTD | < -0.25
151 | RGYIHSYDGGADASVHNIRN | < -0.25
152 | TCMTATLI | < -0.25
153 | QSIVAIRESILRGGGSL | < -0.25
154 | TCMHPRR | < -0.25
155 | SFHPWCVNREGHL | < -0.25
156 | DVYS | < -0.25
157 | LVSLRGRHSR | < -0.25
158 | AEYVHVKLHGRELE | < -0.25
159 | EQLFCYAMLEVQASTRRDKS | < -0.25
160 | TQEPTADRMG | < -0.25
161 | RCGGDNLDEMDLTDEF | < -0.25
162 | TTGNGPMKGLSRSWPTDPAT | < -0.25
163 | GLRIREHAARQVLTKSFSTL | < -0.25
164 | AFFTKSALK | < -0.25
165 | RGGAR | < -0.25
166 | TDREAYTC | < -0.25
167 | DATGGMRSGWYQER | < -0.25
168 | LECLGSKPAFTWGGQQSSAQ | < -0.25

Row | Substance | growth estimate
169 | NYISRSPSSYLDALQRSSGE | < -0.25
170 | CCWEKYSNRVPYSER | < -0.25
171 | YQKRDLLIPVRF | -0.235
172 | VLARA | < -0.25
173 | TEGEMVSNVNGISLT | < -0.25
174 | STLRHLRS | < -0.25
175 | QGVSEAESY | < -0.25
176 | RRCAGHVSLRCNLWSGRSQP | < -0.25
177 | DPIGLRHRAETPASLR | < -0.25
178 | HWPYARYSMGFL | < -0.25
179 | IATVTFMG | < -0.25
180 | QLPYSRIY | < -0.25
181 | PTFRQIWKVGVCQVYH | < -0.25
182 | NVLCTVRCRV | < -0.25
183 | ELVSVRQPVIVSQARLIKSH | < -0.25
184 | HNCWAGG | -0.0591
185 | RDTHNVSPALARRWTRVVTR | < -0.25
186 | RRLVSLALSAVPRLKGIVET | < -0.25
187 | FLWKPSVLGLIVLQS | < -0.25
188 | SGCRIFYSMYHPEVPPLADS | < -0.25
189 | KEAPNIRWT | < -0.25
190 | GKIHHLG | < -0.25
